Reference: article PMC5655499, “Peptide array-based screening reveals a large number of proteins interacting with the ankyrin-repeat domain of the zDHHC17 S-acyltransferase” (The Journal of Biological Chemistry, 2017)

The chains behind the UniProt entries cited, without tags or fusion partners. Residues count along the entry.
UniProt Q8IUH5, residues 51-304: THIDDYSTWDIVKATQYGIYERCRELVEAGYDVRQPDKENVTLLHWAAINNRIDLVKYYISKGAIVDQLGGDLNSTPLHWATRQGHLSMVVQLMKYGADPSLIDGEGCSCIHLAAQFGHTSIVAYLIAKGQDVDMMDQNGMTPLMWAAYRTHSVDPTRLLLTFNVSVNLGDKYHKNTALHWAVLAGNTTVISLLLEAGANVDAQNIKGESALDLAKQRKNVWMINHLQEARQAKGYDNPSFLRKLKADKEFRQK

Experiments:
[1] = target: T1, murine zDHHC13-Cub-PLV bait (mouse) (UniProt Q9CWU2); test: two-hybrid; mating-based split-ubiquitin system (SUS) in yeast; zDHHC-Cub-PLV bait, NubG-2HA-tagged prey; growth on SD media lacking adenine and histidine
T1 sequence: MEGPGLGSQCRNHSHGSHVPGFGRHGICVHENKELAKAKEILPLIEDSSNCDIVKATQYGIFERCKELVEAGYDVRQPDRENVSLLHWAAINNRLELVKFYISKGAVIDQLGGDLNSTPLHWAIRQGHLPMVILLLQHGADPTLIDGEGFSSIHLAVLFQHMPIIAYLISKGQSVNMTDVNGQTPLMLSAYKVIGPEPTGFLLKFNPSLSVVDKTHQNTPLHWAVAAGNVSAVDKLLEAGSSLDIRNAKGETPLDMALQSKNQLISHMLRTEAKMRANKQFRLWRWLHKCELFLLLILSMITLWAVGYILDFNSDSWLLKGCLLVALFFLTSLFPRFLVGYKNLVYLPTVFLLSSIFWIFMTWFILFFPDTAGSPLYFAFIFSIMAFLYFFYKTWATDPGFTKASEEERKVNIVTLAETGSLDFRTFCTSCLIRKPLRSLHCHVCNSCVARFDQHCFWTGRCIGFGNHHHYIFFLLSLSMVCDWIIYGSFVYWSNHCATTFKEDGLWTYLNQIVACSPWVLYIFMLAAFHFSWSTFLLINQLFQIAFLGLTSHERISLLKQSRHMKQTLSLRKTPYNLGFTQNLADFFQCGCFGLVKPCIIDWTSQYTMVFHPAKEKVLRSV

[2] = target: ARzD17-His (51–304 amino acids of human zDHHC17) (human) (UniProt Q8IUH5); test: pull-down; HEK293T lysates with EGFP-tagged proteins incubated with 50 μg ARzD17-His (51–304) and Ni-NTA agarose, 2 h at 4 °C; washes 20 mM Tris-HCl pH 8, 300 mM NaCl, 1% Triton, 40 mM imidazole; blot with GFP antibody; only the target purified

Row | binding [1] | binding [2] | Substance
1 | binds | – | NubG-2HA-SPRED2 C-terminal truncation lacking the SPR domain (mouse) (domain or fragment)
2 | – | binds | EGFP-tagged EVL isoform 1 (from UniProt Q9UI08-2)

Results are given in words; binding and its absence hold for the method and conditions named. Binding can be weak; no strength is given. For some assays here: In cells and extracts the contact can be indirect.
